# Test results from patent US11650214B2, “Proteins of the WNT signaling pathway and uses thereof in the diagnostic and treatment of hypopigmentation disorders” (INSERM (INSTITUT NATIONAL DE LA SANTÉ ET DE LA RECHERCHE …, priority 2014, dated 2023).
# At least one structure is not confirmed: it was looked up by name or label, or the drawing left a doubt.
# How the values were obtained:
# [1] = test system: skin biopsies from abdominoplasty surgery; assay: Ex vivo skin model (abdominoplasty skin), response to forskolin, immunohistostaining of MITF, DCT, tyrosinase; format: cell-based, human
# [2] = test system: skin biopsies from abdominoplasty surgery; assay: Ex vivo skin model (abdominoplasty skin), response to forskolin, RT-qPCR of melanogenic genes; format: cell-based, human
# [3] = at 15 days of forskolin stimulation
smiles,measurement,setting,value
C=C[C@@]1(C)CC(=O)[C@]2(O)[C@@]3(C)[C@@H](O)CCC(C)(C)[C@@H]3[C@H](O)[C@H](OC(C)=O)[C@@]2(C)O1 [forskolin],MITF protein,[1]; after 11 days of stimulation with forskolin,up-regulation
same,DCT protein level,[1]; [3],strong increase
same,tyrosinase protein level,[1]; [3],strong increase
same,MITF mRNA,"[2]; after 11 days of stimulation, forskolin 20 μM to 1 mM every other day",up-regulation
same,MITF mRNA,"[2]; after 15 days, low forskolin concentration",high expression persists
same,DCT mRNA level,[2]; [3],strong increase
same,tyrosinase mRNA level,[2]; [3],strong increase
